PubChem BioAssay AID493246 | Drosophila RNAi Screening Center, 2011

- Aim: 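Genome-wide search for dsRNAs that reduce cell number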 (primary screen)
- System: Drosophila Kc and S2R+ cells
- Reagents: long dsRNA against Drosophila genes
- Detection: 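Raw, unnormalised count of remaining cells in each well; per-plate z-scores of cell number underlie the calls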
- Reading the numbers: Kc cell number and S2R+ cell number: higher = more cells remaining
- Hit rule: 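Counted as a hit if cell number falls by a z-score of at least 3 within its plate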
The screen tested about 21,000 reagents; this is an unselected part of those that have a named target and a result. Of all reagents, 429 (2%) are marked active. 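Values are raw and not normalised between plates; calls rest on per-plate z-scores that were not deposited.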 A plus sign joins genes that one reagent is predicted to hit. The record does not give: the amount of reagent, the time to read-out.

kmr [DRSC12986] — Kc cell number, rep 1 = 1.55e6; Kc cell number, rep 2 = 1.73e6; S2R+ cell number, rep 1 = 1.07e6; S2R+ cell number, rep 2 = 1.22e6; activity call = inactive
kmr [DRSC14827] — Kc cell number, rep 1 = 1.36e6; Kc cell number, rep 2 = 1.58e6; S2R+ cell number, rep 1 = 9.93e5; S2R+ cell number, rep 2 = 1.15e6; activity call = inactive
kmr [DRSC14828] — Kc cell number, rep 1 = 1.36e6; Kc cell number, rep 2 = 1.60e6; S2R+ cell number, rep 1 = 1.03e6; S2R+ cell number, rep 2 = 1.10e6; activity call = inactive
kmr [DRSC16472] — Kc cell number, rep 1 = 1.43e6; Kc cell number, rep 2 = 1.54e6; S2R+ cell number, rep 1 = 1.29e6; S2R+ cell number, rep 2 = 1.30e6; activity call = inactive
CG31663 [DRSC00078] — Kc cell number, rep 1 = 1.53e6; Kc cell number, rep 2 = 1.59e6; S2R+ cell number, rep 1 = 1.10e6; S2R+ cell number, rep 2 = 1.25e6; activity call = inactive
CG31663 [DRSC00389] — Kc cell number, rep 1 = 1.44e6; Kc cell number, rep 2 = 1.40e6; S2R+ cell number, rep 1 = 1.18e6; S2R+ cell number, rep 2 = 1.28e6; activity call = inactive
CG31663 [DRSC00393] — Kc cell number, rep 1 = 1.45e6; Kc cell number, rep 2 = 1.54e6; S2R+ cell number, rep 1 = 1.03e6; S2R+ cell number, rep 2 = 1.15e6; activity call = inactive
CG30291 [DRSC03842] — Kc cell number, rep 1 = 5.15e5; S2R+ cell number, rep 1 = 8.54e5; activity call = inactive
CG13473 [DRSC10017] — Kc cell number, rep 1 = 1.49e6; Kc cell number, rep 2 = 1.53e6; S2R+ cell number, rep 1 = 1.18e6; S2R+ cell number, rep 2 = 1.23e6; activity call = inactive
CNT1 [DRSC06082] — Kc cell number, rep 1 = 1.49e6; Kc cell number, rep 2 = 1.53e6; S2R+ cell number, rep 1 = 1.27e6; S2R+ cell number, rep 2 = 1.30e6; activity call = inactive
Hsc70-1 [DRSC11185] — Kc cell number, rep 1 = 1.93e6; Kc cell number, rep 2 = 1.82e6; S2R+ cell number, rep 1 = 1.12e6; S2R+ cell number, rep 2 = 1.23e6; activity call = inactive

4 consecutive records already listed, quoted:
kmr [DRSC14828] — Kc cell number, rep 1 = 1.36e6; Kc cell number, rep 2 = 1.60e6; S2R+ cell number, rep 1 = 1.03e6; S2R+ cell number, rep 2 = 1.10e6; activity call = inactive
kmr [DRSC16472] — Kc cell number, rep 1 = 1.43e6; Kc cell number, rep 2 = 1.54e6; S2R+ cell number, rep 1 = 1.29e6; S2R+ cell number, rep 2 = 1.30e6; activity call = inactive
CG31663 [DRSC00078] — Kc cell number, rep 1 = 1.53e6; Kc cell number, rep 2 = 1.59e6; S2R+ cell number, rep 1 = 1.10e6; S2R+ cell number, rep 2 = 1.25e6; activity call = inactive
CG31663 [DRSC00389] — Kc cell number, rep 1 = 1.44e6; Kc cell number, rep 2 = 1.40e6; S2R+ cell number, rep 1 = 1.18e6; S2R+ cell number, rep 2 = 1.28e6; activity call = inactive

Next records follow.
CG11200 [DRSC06060] — Kc cell number, rep 1 = 1.30e6; Kc cell number, rep 2 = 1.32e6; S2R+ cell number, rep 1 = 1.17e6; S2R+ cell number, rep 2 = 1.19e6; activity call = inactive
CG1791 [DRSC18141] — Kc cell number, rep 1 = 5.55e5; S2R+ cell number, rep 1 = 8.89e5; activity call = inactive
CG17768 + LSm-4 [DRSC02845] — Kc cell number, rep 1 = 1.55e6; Kc cell number, rep 2 = 1.62e6; S2R+ cell number, rep 1 = 1.07e6; S2R+ cell number, rep 2 = 1.21e6; activity call = inactive
CR15280 [DRSC01953] — Kc cell number, rep 1 = 1.47e6; Kc cell number, rep 2 = 1.57e6; S2R+ cell number, rep 1 = 1.24e6; S2R+ cell number, rep 2 = 1.38e6; activity call = inactive
CG12477 [DRSC09886] — Kc cell number, rep 1 = 1.72e6; Kc cell number, rep 2 = 1.80e6; S2R+ cell number, rep 1 = 1.28e6; S2R+ cell number, rep 2 = 1.36e6; activity call = inactive
bsd [DRSC05953] — Kc cell number, rep 1 = 1.93e6; Kc cell number, rep 2 = 1.78e6; S2R+ cell number, rep 1 = 1.01e6; S2R+ cell number, rep 2 = 1.23e6; activity call = inactive
CG12589 [DRSC12215] — Kc cell number, rep 1 = 1.95e6; Kc cell number, rep 2 = 1.95e6; S2R+ cell number, rep 1 = 1.38e6; S2R+ cell number, rep 2 = 1.67e6; activity call = inactive
ppk31 [DRSC13811] — Kc cell number, rep 1 = 1.14e6; Kc cell number, rep 2 = 1.41e6; S2R+ cell number, rep 1 = 1.00e6; S2R+ cell number, rep 2 = 1.04e6; activity call = inactive
AkhR [DRSC03329] — Kc cell number, rep 1 = 1.26e6; Kc cell number, rep 2 = 1.30e6; S2R+ cell number, rep 1 = 7.14e5; S2R+ cell number, rep 2 = 5.59e5; activity call = inactive
CG13875 [DRSC08345] — Kc cell number, rep 1 = 1.41e6; Kc cell number, rep 2 = 1.37e6; S2R+ cell number, rep 1 = 9.44e5; S2R+ cell number, rep 2 = 1.11e6; activity call = inactive
CG1494 [DRSC20509] — Kc cell number, rep 1 = 1.56e6; Kc cell number, rep 2 = 1.60e6; S2R+ cell number, rep 1 = 1.15e6; S2R+ cell number, rep 2 = 1.30e6; activity call = inactive
alpha-Man-IIb [DRSC16898] — Kc cell number, rep 1 = 1.59e6; Kc cell number, rep 2 = 1.65e6; S2R+ cell number, rep 1 = 1.17e6; S2R+ cell number, rep 2 = 1.26e6; activity call = inactive
CG30283 [DRSC04071] — Kc cell number, rep 1 = 1.56e6; Kc cell number, rep 2 = 1.60e6; S2R+ cell number, rep 1 = 1.36e6; S2R+ cell number, rep 2 = 3.52e5; activity call = inactive
CG9257 [DRSC03173] — Kc cell number, rep 1 = 1.61e6; Kc cell number, rep 2 = 1.70e6; S2R+ cell number, rep 1 = 1.36e6; S2R+ cell number, rep 2 = 4.12e5; activity call = inactive
ItgaPS4 [DRSC06630] — Kc cell number, rep 1 = 1.48e6; Kc cell number, rep 2 = 1.61e6; S2R+ cell number, rep 1 = 1.31e6; S2R+ cell number, rep 2 = 1.45e6; activity call = inactive
ord [DRSC04706] — Kc cell number, rep 1 = 1.60e6; Kc cell number, rep 2 = 1.65e6; S2R+ cell number, rep 1 = 1.29e6; S2R+ cell number, rep 2 = 1.34e6; activity call = inactive
